No constants are given. Whether binding was seen depends on the method and setting. For some of these results: In cells and extracts the contact can be indirect. Some entries that bind do so weakly or less than the wild type. Each block holds one molecule with its values, some of them ahead of it.
Assays:
[1] = target: recombinant, Myc-tagged SVEP1 (Sushi, von Willebrand factor type A, EGF and pentraxin domain containing 1) (mouse) (UniProt A2AVA0); assay: co-IP; confirmation of the proteomic pulldown: Myc-tagged SVEP1 in enriched media of murine VSMCs, anti-c-Myc magnetic beads, aliquot of the beads kept as pulldown fraction for validation; only the target purified
[2] = target: biotinylated BSA (bovine serum albumin) (bovine) (UniProt P02769); assay: BLI; biotinylated BSA loaded on Octet SA biosensors as negative control; SVEP1 5-180 nM as analyte; 0.01% Tween 20 in calcium-containing DPBS; both purified
[3] = target: T1, PEAR1ECD (R&D Systems) (UniProt Q5VY43); assay: co-IP; reciprocal: recombinant SVEP1-Myc and PEAR1ECD mixed in PBS with 1 mg/mL BSA, 0.01% Tween 20, 10 mM Ca2+; 2 ug primary antibody and beads; SVEP1 found with PEAR1ECD; negative control non-specific IgG; immunoblot; both purified
T1 sequence: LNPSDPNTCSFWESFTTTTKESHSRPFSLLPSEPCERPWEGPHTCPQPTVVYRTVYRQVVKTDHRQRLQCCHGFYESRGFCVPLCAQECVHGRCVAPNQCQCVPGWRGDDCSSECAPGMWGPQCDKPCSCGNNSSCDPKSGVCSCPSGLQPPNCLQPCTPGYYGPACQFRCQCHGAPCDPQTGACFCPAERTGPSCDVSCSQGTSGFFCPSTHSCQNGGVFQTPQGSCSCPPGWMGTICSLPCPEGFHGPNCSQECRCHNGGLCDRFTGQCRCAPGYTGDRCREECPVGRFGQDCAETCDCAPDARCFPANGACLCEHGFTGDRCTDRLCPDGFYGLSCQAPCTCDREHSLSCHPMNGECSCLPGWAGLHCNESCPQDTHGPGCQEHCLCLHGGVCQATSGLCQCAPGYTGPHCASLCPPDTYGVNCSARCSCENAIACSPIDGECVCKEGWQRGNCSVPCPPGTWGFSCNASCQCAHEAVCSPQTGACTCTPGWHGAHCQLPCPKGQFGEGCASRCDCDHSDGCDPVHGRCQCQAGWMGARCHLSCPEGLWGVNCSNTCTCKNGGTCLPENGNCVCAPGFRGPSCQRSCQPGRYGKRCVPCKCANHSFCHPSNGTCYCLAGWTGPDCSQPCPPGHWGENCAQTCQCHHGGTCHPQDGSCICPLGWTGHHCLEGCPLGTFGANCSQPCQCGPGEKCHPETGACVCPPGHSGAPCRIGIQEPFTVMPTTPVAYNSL

Sequences of proteins named here, by UniProt entry; tags and fusion partners are left off. Residues count along the entry.
UniProt A2AVA0, residues 18-3567: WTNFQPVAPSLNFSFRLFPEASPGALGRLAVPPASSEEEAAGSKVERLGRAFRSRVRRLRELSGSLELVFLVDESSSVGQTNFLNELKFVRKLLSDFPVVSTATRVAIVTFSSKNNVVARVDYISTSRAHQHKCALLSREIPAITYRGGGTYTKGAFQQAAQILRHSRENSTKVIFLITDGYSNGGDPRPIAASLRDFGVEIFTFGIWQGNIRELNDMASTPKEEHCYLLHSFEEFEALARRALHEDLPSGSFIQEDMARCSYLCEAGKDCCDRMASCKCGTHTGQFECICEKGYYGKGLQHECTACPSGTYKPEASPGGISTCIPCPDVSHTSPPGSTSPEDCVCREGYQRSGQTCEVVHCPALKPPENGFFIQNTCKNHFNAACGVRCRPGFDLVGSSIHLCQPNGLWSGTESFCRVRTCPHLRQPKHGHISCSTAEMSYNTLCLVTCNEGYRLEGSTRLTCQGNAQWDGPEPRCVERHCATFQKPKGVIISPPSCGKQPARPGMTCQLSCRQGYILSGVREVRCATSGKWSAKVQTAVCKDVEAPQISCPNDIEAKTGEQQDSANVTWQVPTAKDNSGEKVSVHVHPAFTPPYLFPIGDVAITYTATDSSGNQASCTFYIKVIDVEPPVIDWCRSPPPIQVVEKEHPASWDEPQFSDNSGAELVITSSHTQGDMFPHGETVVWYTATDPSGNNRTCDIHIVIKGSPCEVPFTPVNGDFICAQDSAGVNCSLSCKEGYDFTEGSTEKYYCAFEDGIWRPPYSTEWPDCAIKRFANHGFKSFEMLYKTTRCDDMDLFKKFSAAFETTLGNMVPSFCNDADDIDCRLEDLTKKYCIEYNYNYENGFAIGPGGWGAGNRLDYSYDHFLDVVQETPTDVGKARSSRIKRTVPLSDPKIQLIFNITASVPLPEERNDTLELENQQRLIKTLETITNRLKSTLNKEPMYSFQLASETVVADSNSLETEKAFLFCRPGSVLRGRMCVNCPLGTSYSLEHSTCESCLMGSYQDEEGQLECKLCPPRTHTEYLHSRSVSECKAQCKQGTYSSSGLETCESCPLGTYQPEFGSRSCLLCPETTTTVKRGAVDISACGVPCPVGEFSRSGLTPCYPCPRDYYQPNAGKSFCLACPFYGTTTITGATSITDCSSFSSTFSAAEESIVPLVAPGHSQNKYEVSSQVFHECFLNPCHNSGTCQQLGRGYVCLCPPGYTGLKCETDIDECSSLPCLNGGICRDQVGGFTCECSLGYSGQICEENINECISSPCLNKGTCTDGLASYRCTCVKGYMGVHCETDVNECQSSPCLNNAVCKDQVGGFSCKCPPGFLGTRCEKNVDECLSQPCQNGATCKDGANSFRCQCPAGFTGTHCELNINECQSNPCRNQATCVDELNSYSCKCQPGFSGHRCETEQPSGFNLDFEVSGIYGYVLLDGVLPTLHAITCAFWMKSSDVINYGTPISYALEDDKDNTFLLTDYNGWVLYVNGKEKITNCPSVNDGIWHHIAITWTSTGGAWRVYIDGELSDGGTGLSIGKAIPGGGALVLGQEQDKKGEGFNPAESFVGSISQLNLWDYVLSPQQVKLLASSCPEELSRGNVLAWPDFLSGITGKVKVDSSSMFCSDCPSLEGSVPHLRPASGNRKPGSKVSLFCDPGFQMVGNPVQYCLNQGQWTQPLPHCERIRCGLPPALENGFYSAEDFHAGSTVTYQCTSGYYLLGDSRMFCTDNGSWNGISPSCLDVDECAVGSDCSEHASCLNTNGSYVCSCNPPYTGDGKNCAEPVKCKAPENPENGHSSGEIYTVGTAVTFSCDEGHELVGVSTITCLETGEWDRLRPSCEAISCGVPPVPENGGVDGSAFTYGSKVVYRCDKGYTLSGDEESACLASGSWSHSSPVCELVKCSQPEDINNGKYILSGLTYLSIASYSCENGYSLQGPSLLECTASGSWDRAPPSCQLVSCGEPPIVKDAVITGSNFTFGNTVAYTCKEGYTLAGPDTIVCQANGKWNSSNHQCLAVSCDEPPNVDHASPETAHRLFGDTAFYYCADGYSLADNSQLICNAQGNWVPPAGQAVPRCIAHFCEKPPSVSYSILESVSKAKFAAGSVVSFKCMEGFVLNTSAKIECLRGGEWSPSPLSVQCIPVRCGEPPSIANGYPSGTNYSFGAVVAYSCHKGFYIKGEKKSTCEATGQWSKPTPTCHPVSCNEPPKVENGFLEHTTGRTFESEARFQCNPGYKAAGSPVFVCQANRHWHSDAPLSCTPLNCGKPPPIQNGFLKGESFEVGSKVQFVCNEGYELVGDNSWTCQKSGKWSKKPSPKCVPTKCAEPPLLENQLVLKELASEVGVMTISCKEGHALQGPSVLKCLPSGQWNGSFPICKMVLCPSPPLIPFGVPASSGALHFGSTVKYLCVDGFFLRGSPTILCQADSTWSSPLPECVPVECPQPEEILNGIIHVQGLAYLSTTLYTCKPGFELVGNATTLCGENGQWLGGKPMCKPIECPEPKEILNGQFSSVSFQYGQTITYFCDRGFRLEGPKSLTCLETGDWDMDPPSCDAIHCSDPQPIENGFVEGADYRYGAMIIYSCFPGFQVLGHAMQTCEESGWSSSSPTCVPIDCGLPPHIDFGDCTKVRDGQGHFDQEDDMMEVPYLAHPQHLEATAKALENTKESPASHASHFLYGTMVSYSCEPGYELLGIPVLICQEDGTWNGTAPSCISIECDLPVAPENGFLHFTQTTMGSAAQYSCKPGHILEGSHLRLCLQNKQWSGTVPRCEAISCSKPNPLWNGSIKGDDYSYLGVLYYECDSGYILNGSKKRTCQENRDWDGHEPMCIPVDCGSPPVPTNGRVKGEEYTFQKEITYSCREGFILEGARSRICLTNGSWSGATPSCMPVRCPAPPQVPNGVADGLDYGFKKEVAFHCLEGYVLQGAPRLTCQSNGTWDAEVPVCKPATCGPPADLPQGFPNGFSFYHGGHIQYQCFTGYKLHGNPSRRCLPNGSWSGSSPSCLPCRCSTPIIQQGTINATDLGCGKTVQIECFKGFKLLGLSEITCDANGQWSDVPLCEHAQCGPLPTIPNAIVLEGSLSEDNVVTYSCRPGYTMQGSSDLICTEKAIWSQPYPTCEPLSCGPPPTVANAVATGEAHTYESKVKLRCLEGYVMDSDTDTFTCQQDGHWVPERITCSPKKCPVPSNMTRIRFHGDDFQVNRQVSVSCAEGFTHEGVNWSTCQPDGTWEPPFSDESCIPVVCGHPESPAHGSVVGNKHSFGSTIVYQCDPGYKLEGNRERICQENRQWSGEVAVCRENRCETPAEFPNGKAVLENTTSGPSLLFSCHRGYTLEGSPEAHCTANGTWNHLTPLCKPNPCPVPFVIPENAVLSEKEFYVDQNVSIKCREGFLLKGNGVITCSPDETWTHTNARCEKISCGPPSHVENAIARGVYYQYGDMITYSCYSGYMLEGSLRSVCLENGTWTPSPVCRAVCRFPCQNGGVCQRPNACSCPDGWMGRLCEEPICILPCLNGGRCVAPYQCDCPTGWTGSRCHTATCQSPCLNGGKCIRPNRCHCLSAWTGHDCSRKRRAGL
UniProt P02769, residues 25-607: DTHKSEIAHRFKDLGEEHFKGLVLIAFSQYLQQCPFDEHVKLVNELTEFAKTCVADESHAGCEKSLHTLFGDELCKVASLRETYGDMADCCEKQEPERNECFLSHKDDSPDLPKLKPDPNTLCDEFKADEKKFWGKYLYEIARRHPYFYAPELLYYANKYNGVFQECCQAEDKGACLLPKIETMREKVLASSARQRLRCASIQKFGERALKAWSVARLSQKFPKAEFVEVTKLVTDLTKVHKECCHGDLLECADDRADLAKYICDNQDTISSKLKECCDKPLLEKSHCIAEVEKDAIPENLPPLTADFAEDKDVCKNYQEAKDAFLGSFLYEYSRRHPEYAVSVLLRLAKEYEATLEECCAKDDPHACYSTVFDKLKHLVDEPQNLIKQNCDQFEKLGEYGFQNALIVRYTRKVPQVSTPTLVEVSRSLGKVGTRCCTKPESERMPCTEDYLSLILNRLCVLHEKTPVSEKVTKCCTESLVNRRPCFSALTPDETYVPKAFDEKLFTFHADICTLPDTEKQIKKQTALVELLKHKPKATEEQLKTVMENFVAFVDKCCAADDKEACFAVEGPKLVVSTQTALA
UniProt P11276, residues 33-2477: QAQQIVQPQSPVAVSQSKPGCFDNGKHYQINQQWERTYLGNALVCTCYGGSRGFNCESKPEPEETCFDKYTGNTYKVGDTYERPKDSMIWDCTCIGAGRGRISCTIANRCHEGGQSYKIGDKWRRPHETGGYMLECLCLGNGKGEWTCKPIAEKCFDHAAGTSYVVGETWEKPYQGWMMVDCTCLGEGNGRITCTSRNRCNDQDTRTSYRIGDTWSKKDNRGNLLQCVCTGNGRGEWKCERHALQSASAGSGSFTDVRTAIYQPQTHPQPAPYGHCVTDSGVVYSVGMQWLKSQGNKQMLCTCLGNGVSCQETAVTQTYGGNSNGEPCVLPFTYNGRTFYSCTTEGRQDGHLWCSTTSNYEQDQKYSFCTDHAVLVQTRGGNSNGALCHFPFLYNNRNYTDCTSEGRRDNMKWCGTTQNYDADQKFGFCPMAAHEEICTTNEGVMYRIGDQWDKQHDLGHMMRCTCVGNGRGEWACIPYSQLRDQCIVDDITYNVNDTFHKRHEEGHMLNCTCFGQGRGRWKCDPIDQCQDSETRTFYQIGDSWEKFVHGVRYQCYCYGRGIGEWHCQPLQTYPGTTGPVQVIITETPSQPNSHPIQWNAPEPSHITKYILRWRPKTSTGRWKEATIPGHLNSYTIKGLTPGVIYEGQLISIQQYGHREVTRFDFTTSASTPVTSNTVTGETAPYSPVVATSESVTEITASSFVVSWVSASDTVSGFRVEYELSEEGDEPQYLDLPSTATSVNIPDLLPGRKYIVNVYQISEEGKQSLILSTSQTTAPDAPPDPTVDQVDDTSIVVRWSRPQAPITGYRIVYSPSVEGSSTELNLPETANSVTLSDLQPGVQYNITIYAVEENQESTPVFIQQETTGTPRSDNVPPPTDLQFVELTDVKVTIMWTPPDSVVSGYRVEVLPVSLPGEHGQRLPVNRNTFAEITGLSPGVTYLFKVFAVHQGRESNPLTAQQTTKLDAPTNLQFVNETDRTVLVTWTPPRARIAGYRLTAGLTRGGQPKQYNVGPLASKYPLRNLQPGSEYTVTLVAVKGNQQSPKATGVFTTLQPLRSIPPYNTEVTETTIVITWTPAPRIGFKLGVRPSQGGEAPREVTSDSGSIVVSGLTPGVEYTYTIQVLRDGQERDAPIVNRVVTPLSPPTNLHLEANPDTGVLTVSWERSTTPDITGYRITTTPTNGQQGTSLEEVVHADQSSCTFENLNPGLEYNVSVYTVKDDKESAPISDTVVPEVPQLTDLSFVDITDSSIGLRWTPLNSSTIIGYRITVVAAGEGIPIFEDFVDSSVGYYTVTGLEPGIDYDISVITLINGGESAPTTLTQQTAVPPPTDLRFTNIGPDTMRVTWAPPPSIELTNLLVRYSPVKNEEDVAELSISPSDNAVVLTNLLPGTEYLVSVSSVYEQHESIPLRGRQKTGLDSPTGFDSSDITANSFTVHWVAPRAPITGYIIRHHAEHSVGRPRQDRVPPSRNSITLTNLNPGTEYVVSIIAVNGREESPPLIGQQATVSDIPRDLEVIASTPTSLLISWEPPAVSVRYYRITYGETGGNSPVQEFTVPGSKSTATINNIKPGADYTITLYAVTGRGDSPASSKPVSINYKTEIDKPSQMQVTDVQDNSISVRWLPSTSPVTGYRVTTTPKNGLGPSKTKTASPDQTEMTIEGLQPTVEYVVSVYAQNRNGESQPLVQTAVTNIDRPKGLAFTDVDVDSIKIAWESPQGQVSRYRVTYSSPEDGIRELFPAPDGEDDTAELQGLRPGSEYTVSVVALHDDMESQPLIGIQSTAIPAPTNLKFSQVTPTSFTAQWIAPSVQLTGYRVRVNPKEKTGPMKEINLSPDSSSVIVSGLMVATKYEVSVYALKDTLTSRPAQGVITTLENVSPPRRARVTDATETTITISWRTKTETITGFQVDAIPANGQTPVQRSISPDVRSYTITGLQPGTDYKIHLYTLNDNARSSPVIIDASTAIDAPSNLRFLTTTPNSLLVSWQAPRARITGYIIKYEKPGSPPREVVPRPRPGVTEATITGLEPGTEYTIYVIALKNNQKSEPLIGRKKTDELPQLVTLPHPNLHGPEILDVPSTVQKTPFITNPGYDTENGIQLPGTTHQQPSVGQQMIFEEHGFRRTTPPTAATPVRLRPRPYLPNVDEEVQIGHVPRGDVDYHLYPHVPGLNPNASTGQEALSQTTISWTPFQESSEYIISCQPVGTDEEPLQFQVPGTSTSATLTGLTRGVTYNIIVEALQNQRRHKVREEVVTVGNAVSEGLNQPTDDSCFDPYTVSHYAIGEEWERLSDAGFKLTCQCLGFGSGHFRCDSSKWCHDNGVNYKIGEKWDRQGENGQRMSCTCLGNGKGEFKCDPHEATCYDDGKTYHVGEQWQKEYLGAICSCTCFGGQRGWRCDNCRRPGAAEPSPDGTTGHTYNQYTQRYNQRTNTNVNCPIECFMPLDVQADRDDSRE

[4] = target: recombinant, Myc-tagged SVEP1 (Sushi, von Willebrand factor type A, EGF and pentraxin domain containing 1) (mouse) (UniProt A2AVA0); assay: co-IP; recombinant SVEP1-Myc and PEAR1ECD mixed 3:1 by mass (about equimolar) in PBS with 1 mg/mL BSA, 0.01% Tween 20, 10 mM Ca2+, 2 h; PEAR1ECD found with SVEP1; negative control no SVEP1; immunoblot; both purified

binding [1]: binds
Molecule: Fibronectin (from UniProt P11276 33-2477)

binding [2]: no binding (tested: 5-180 nM SVEP1)
binding [3]: binds
Molecule: recombinant, Myc-tagged SVEP1 (Sushi, von Willebrand factor type A, EGF and pentraxin domain containing 1) (from UniProt A2AVA0 18-3567)

binding [4]: binds
B1: PEAR1ECD (R&D Systems) (domain or fragment, UniProt Q5VY43 21-755)
chain: T1 sequence

Reference: article PMC9932102, “SVEP1 is an endogenous ligand for the orphan receptor PEAR1” (Nature Communications, 2023)
